In article PMC6643436:
Construct, isoform or probe ends are uncertain for at least one entry.

System: CDYL (recombinant, Abnova H00009425-P01)
Experiment: EMSA
Conditions: 60 fmol labelled probe, 5 uL recombinant CDYL (or SCLC nuclear proteins), 20 min at 20 C, 6% polyacrylamide gel at 4 C; salt and pH not stated; commercial protein

GGGCCCGGAACTCACGACCCCCGACAGCGGTCTCCCCCGCCCCCCCAACCCCG (double strand) [CDKN1C promoter EMSA probe]
binding result: binds
